Values quoted from earlier work in patent US11117883B2 (Ariad Pharmaceuticals, Inc., priority 2016, dated 2021).
For at least one compound, name, drawing or mass did not settle the structure.

Tested on: gastrointestinal stromal tumors (GIST)
Details: GIST patients with imatinib-resistant tumors; cited from earlier work

CCN(CC)CCNC(=O)c1c(C)[nH]c(/C=C2\C(=O)Nc3ccc(F)cc32)c1C [sunitinib]
median progression-free survival (PFS): 6.2 months
overall response rates (ORR): 7%
